SMILES strings stand for the structures. Where two headings read alike, the source gives them in different places.

Series [1] concerns male reproduction of sexually mature rats. The note with it: rat, i.p., per 1 g liver.
Series [2] has the same test system. To be noted: rat, oral, per 1 g liver.

In the case of `O=S(=O)([O-])[O-].[Zn+2]` [zinc sulfate], the “μM PCA 1 g liver” value worked out at 1.86 ± 0.24 µM in series [1] (0.5 mg ZnSO4.7H2 O daily 30 days); 1.62 ± 0.12 µM in series [1] (1.0 mg ZnSO4.7H2 O daily 30 days); 1.17 ± 0.06 µM in series [1] (5.0 mg ZnSO4.7H2 O daily 30 days); 2.23 ± 0.26 µM in series [2] (15 mg ZnSO4.7H2 O daily 30 days); 2.63 ± 0.22 µM in series [2] (50 mg ZnSO4.7H2 O daily 30 days).

The values are drawn from patent publication US4156427A, “Injectable male animal sterilant for selectively controlling the function of testes” (priority 1977, dated 1979).
